Experimental data: PubChem BioAssay AID1671195 (Yale University, 2021)

Test: 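Genes whose knockdown alters LDL uptake in liver cancer cells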 (primary screen)
System: human Huh7 hepatoma cells
Reagents: siRNA pool against human genes, 18 nM
Duration: about 2 to 2.5 days of knockdown, then 8 h LDL uptake
Challenge: DiI-labelled LDL at 30 µg/ml for 8 h, in lipoprotein-deficient serum medium
Detection: 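Per-cell DiI-LDL intensity by automated imaging; well means scaled to the plate median and given as a robust z-score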
Reading the numbers: robust z-score: higher = more LDL uptake after knockdown
Rule for the call: 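a gene counts as active if at least two replicate z-scores exceed ±2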
Shown is a random part of about 22,000 deposited reagents. In the full data, about 1,510 (6.9%) were called active. 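Active includes knockdowns raising or lowering LDL uptake; positive z-scores mean more uptake, negative mean less.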 The numbers tell different reagents against one gene apart.

Gene	pool no.	robust z-score, replicate 1	robust z-score, replicate 2	robust z-score, replicate 3	call
FAM50A (family with sequence similarity 50 member A)	1	0.305	-0.935	-0.943	inactive
DTHD1 (death domain containing 1)	1	0.809	0.58	0.541	inactive
PTPN2 (protein tyrosine phosphatase non-receptor type 2)	1	-0.216	-0.548	-0.459	inactive
DKC1 (dyskerin pseudouridine synthase 1)	1	0.624	1.1	1.53	inactive
LOC440668 (retired record)	1	-0.963	-0.918	-0.611	inactive
WDR77 (WD repeat domain 77)	1	0.762	0.595	0.35	inactive
CD83 (CD83 molecule)	1	-1.41	-1.31	-1.66	inactive
LOC388903 (retired record)	1	-1.09	-1.31	-0.902	inactive
SLC5A4	1	0.0858	0.437	0.439	inactive
THAP7-AS1 (THAP7 antisense RNA 1)	1	-0.309	-0.279	-0.0188	inactive
SPIDR (scaffold protein involved in DNA repair)	1	1.63	1.4	2.91	inactive
BRWD1 (bromodomain and WD repeat domain containing 1)	1	0.159	-0.611	1.01	inactive
S1PR3 (sphingosine-1-phosphate receptor 3)	1	0.208	0.254	0.0196	inactive
S1PR3 (sphingosine-1-phosphate receptor 3)	2	-0.61	-0.131	-0.322	inactive
SIX3 (SIX homeobox 3)	1	-0.342	-0.942	-0.906	inactive
CENPP (centromere protein P)	1	0.828	-1.38	0.575	inactive
OR2T4 (olfactory receptor family 2 subfamily T member 4)	1	0.975	0.693	-0.266	inactive
CHURC1 (churchill domain containing 1)	1	-1.12	-1.5	-1.77	inactive

Copied from above for reference:
Gene	pool no.	robust z-score, replicate 1	robust z-score, replicate 2	robust z-score, replicate 3	call
SPIDR (scaffold protein involved in DNA repair)	1	1.63	1.4	2.91	inactive
BRWD1 (bromodomain and WD repeat domain containing 1)	1	0.159	-0.611	1.01	inactive

More entries:
Gene	pool no.	robust z-score, replicate 1	robust z-score, replicate 2	robust z-score, replicate 3	call
LOC441119 (retired record)	1	-0.303	0.139	-0.255	inactive
OR11H6 (olfactory receptor family 11 subfamily H member 6)	1	0.24	0.716	0.517	inactive
ZNF518A (zinc finger protein 518A)	1	0.131	0.036	0.786	inactive
PAQR4 (progestin and adipoQ receptor family member 4)	1	1.45	1.48	1.68	inactive
SETDB2 (SET domain bifurcated histone lysine methyltransferase 2)	1	-0.116	-0.639	-0.631	inactive
LOC441048 (retired record)	1	1.01	0.0352	-0.266	inactive
RABGAP1L (RAB GTPase activating protein 1 like)	1	0.0916	-1.15	-1.24	inactive
SLC35A5	1	-0.631	0.591	-1.34	inactive
PTPN4 (protein tyrosine phosphatase non-receptor type 4)	1	1.2	1.52	1.75	inactive
NXPH3 (neurexophilin 3)	1	0.978	0.0292	1.88	inactive
